Experimental data reported in the supplement of paper PMC8256030.
“And” between values parts separate entries of the source, which are not always exact repeats. Equal entries are not always repeated. Structures can show the parent of a compound that is named as a salt. The list shows a part of the results. Single values are uncertain here, since repeats match poorly.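 HEK293T cells were given each compound shortly before transfection with a reporter in which red mCherry is followed by the SARS-CoV-2 frameshift element and then GFP in the −1 frame, so GFP appears only after frameshifting.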

Test system: HEK293T
Experiment: percent viability (nuclei count) relative to control; higher = more viable cells
Conditions: 10 µM; 24 h

SMILES | percent viability
CCCCOc1ccc(OCCCN2CCOCC2)cc1 [pramocaine] | 142%
CC(C)(C)CC(C)(C)c1ccc(O)c(Cc2ccc(Cl)cc2Cl)c1 [clofoctol] | 49.9%
Cc1cc(O)cc(C)c1Cl | 127%
S=c1[nH]cnc2nc[nH]c12 | 144%
CC(NCCCCc1ccccc1)C(O)c1ccc2c(c1)CCS2 (stereo unspecified) [tibalosin] | 244%
CC(C)Nc1ncccn1 [isaxonine] | 357%
N[C@@H]1CCCC[C@H]1N.O=C([O-])C(=O)[O-].[Pt+2] | 172%
NC(=O)Oc1ccc(Cc2ccccc2)cc1 [diphenan] | 115%
N[C@@H](CSCC(=O)O)C(=O)O [Carbocisteine] | 270%
CCCCOC(=O)c1ccccc1Nc1cccc(C(F)(F)F)c1 [ufenamate] | 198%
CO[C@@]1(NC(=O)C2SC(=C(C(N)=O)C(=O)O)S2)C(=O)N2C(C(=O)O)=C(CSc3nnnn3C)CS[C@@H]21 (stereo partly specified) [Cefotan] | 105%
C[C@@H]1C/C=C/C=C/C=C/C=C/[C@H](O[C@@H]2O[C@H](C)[C@@H](O)[C@H](N)[C@@H]2O)C[C@@H]2O[C@](O)(C[C@@H](O)C[C@H]3O[C@@H]3/C=C/C(=O)O1)C[C@H](O)[C@H]2C(=O)O [Pimaricin] | 243%
CONC(=O)Nc1ccc(-c2sc3c(c2CN(C)Cc2ccccc2)c(=O)n(-c2ccccc2)c(=O)n3Cc2c(F)cccc2F)cc1 [sufugolix] | 229%
CC(C)[C@@H]1CC[C@@H](C)C[C@H]1O [levomenthol] | 319%
Nc1ccc(C(=O)Oc2ccccc2)c(O)c1 [fenamisal] | 431%
Cc1ncc(C[n+]2csc(CCO)c2C)c(N)n1 [Vitamin B1] | 240%
O=c1[nH]c(=O)n([C@H]2C[C@H](O)[C@@H](CO)O2)cc1Br [broxuridine] | 136%
CC1(C)S[C@@H]2[C@H](NC(=O)[C@H](C(=O)O)c3ccsc3)C(=O)N2[C@H]1C(=O)O [ticarcillin] | 159%
CCOc1ccccc1C(N)=O [ethenzamide] | 227%
CC(C)Cc1ccc(CC(=O)O)cc1 [ibufenac] | 189%
CC1=CC(=O)c2ccccc2C1=O | 312%

Copied from the listing for reference:
SMILES | percent viability
CC(C)(C)CC(C)(C)c1ccc(O)c(Cc2ccc(Cl)cc2Cl)c1 [clofoctol] | 49.9%
Cc1cc(O)cc(C)c1Cl | 127%

More records

SMILES | percent viability
CC(C)(C(=O)c1cccnc1)c1cccnc1 [metyrapone] | 207%
CC1(C)OC(=O)C(OCC2CC2)=C1c1ccc(S(C)(=O)=O)cc1 [firocoxib] | 118%
CCC(C)(Oc1ccc(C2(c3ccc(OC(C)(CC)C(=O)O)cc3)CCCCC2)cc1)C(=O)O (stereo unspecified) [Clinofibrate] | 311%
CCCCOc1ccc(NC(=S)Nc2ccc(N(C)C)cc2)cc1 [N-(4-butoxyphenyl)-N'-[4-(dimethylamino)phenyl]thiourea] | 123%
O=C(Nc1cc(Cl)cc(Cl)c1O)c1c(O)c(Cl)cc(Cl)c1Cl [oxyclozanide] | 257%
CCOCc1nc2c(N)nc3ccccc3c2n1CC(C)(C)O [resiquimod] | 219%
Cc1cc(C(C)(C)C)c(O)c(C(C)(C)C)c1 | 52.8%
CSCC[C@H](N)C(=O)O [methionine] | 230%
CC(C)(O)c1ccccc1CC[C@@H](SCC1(CC(=O)O)CC1)c1cccc(/C=C/c2ccc3ccc(Cl)cc3n2)c1 [montelukast] | 227% and 310%
CCC1(C)CC(=O)NC1=O (stereo unspecified) [ethosuximide] | 405%
CCOC(=O)C1=C[C@]2(CC)CCCN3CCc4c(n1c1ccccc41)[C@@H]32 [Vinpocetine] | 221%
O=C(O)Cn1c(=O)n(Cc2ccc(Br)cc2F)c(=O)c2ccc(Cl)cc21 [zenarestat] | 82.1%
Cc1cccc(C)c1NC(=O)CC12CCCN1CCC2 [pilsicainide] | 216%
O=C(O)c1ccc(-n2nc(-c3ccccc3O)nc2-c2ccccc2O)cc1 [Exjade] | 238%
COc1ccc(CC(C)NCC(O)c2ccc(O)c(NC=O)c2)cc1 (stereo unspecified) [formoterol] | 147% and 205%
CC(C)S(=O)(=O)n1c(N)nc2ccc(/C(=N/O)c3ccccc3)cc21 [enviroxime] | 457%
Cn1cnc([N+](=O)[O-])c1Sc1ncnc2[nH]cnc12 [Azathioprine] | 338% and 210%
CNc1cc(OC)c(C(=O)NC2CCN(Cc3ccccc3)C2C)cc1Cl (stereo unspecified) [nemonapride] | 188%
CC(C)(CO)[C@@H](O)C(=O)NCCC(=O)O [Pantothenic acid] | 164%
CCC[C@@H]1C[C@@H](C(=O)N[C@@H]([C@H]2O[C@H](SC)[C@H](O)[C@@H](O)[C@H]2O)[C@H](C)Cl)N(C)C1 [Cleocin] | 45.8% and 51.4%
CCCCC(C)(O)C/C=C/[C@H]1[C@H](O)CC(=O)[C@@H]1CCCCCCC(=O)OC (mixture of isomers) [Misoprostol] | 206%

Some of the entries so far, with tabs.
SMILES	percent viability
CC(C)(C)CC(C)(C)c1ccc(O)c(Cc2ccc(Cl)cc2Cl)c1 [clofoctol]	49.9%
Cc1cc(O)cc(C)c1Cl	127%
CC(NCCCCc1ccccc1)C(O)c1ccc2c(c1)CCS2 (stereo unspecified) [tibalosin]	244%
CC(C)Nc1ncccn1 [isaxonine]	357%
N[C@@H](CSCC(=O)O)C(=O)O [Carbocisteine]	270%
CONC(=O)Nc1ccc(-c2sc3c(c2CN(C)Cc2ccccc2)c(=O)n(-c2ccccc2)c(=O)n3Cc2c(F)cccc2F)cc1 [sufugolix]	229%
Nc1ccc(C(=O)Oc2ccccc2)c(O)c1 [fenamisal]	431%
Cc1ncc(C[n+]2csc(CCO)c2C)c(N)n1 [Vitamin B1]	240%
CC1=CC(=O)c2ccccc2C1=O	312%
CC(C)(C(=O)c1cccnc1)c1cccnc1 [metyrapone]	207%
CC1(C)OC(=O)C(OCC2CC2)=C1c1ccc(S(C)(=O)=O)cc1 [firocoxib]	118%
CCC(C)(Oc1ccc(C2(c3ccc(OC(C)(CC)C(=O)O)cc3)CCCCC2)cc1)C(=O)O (stereo unspecified) [Clinofibrate]	311%
CCCCOc1ccc(NC(=S)Nc2ccc(N(C)C)cc2)cc1 [N-(4-butoxyphenyl)-N'-[4-(dimethylamino)phenyl]thiourea]	123%
CCOCc1nc2c(N)nc3ccccc3c2n1CC(C)(C)O [resiquimod]	219%
CCOC(=O)C1=C[C@]2(CC)CCCN3CCc4c(n1c1ccccc41)[C@@H]32 [Vinpocetine]	221%
O=C(O)Cn1c(=O)n(Cc2ccc(Br)cc2F)c(=O)c2ccc(Cl)cc21 [zenarestat]	82.1%
Cc1cccc(C)c1NC(=O)CC12CCCN1CCC2 [pilsicainide]	216%
CC(C)S(=O)(=O)n1c(N)nc2ccc(/C(=N/O)c3ccccc3)cc21 [enviroxime]	457%
Cn1cnc([N+](=O)[O-])c1Sc1ncnc2[nH]cnc12 [Azathioprine]	338% and 210%
CNc1cc(OC)c(C(=O)NC2CCN(Cc3ccccc3)C2C)cc1Cl (stereo unspecified) [nemonapride]	188%
CCC[C@@H]1C[C@@H](C(=O)N[C@@H]([C@H]2O[C@H](SC)[C@H](O)[C@@H](O)[C@H]2O)[C@H](C)Cl)N(C)C1 [Cleocin]	45.8% and 51.4%
CCCCC(C)(O)C/C=C/[C@H]1[C@H](O)CC(=O)[C@@H]1CCCCCCC(=O)OC (mixture of isomers) [Misoprostol]	206%

Carrying on.

SMILES | percent viability
CC1(C)[C@@H](O)CC[C@]2(C)[C@H]3C(=O)C=C4[C@@H]5C[C@@](C)(C(=O)O)CC[C@]5(C)CC[C@@]4(C)[C@]3(C)CC[C@@H]12 [enoxolone] | 162%
COc1ccc(N(CCCC(=O)O)C(=O)c2ccc(Cl)cc2)cc1 [clanobutin] | 358%
O=C(CCNNC(=O)c1ccncc1)NCc1ccccc1 [nialamide] | 233% and 318%
CC[C@]1(O)C[C@@H]2CN(CCc3c([nH]c4ccccc34)[C@@](C(=O)OC)(c3cc4c(cc3OC)N(C)[C@H]3[C@@](O)(C(=O)OC)[C@H](OC(C)=O)[C@]5(CC)C=CCN6CC[C@]43[C@@H]65)C2)C1 [Vinblastine] | 28.2% and 12.3%
CCN(CC)C(=O)c1ccc(O)c(OC)c1 [etamivan] | 234%
CC(C)(C(=O)O)c1ccc(C(O)CCCN2CCC(C(O)(c3ccccc3)c3ccccc3)CC2)cc1 (stereo unspecified) | 203%
CC[C@]12CN3CCc4c([nH]c5ccccc45)[C@@](C(=O)OC)(c4cc5c(cc4OC)N(C=O)[C@H]4[C@@](O)(C(=O)OC)[C@H](OC(C)=O)[C@]6(CC)C=CCN7CC[C@]54[C@@H]76)C[C@@H](C3)[C@H]1O2 [vinformide] | 21.9%
C[C@H](Cn1cnc2c(N)ncnc21)OCP(=O)(O)O [tenofovir] | 151%
CCOC(=O)C(C)(C)Oc1ccc(Cl)cc1 [clofibrate] | 365% and 178%
CCOC(=O)O[C@]1(C(=O)COC(=O)CC)CC[C@H]2[C@@H]3CCC4=CC(=O)C=C[C@]4(C)[C@H]3[C@@H](O)C[C@@]21C [Prednicarbate] | 188%
CN1CCc2cccc3c2[C@H]1Cc1ccc(O)c(O)c1-3 [(R)-(-)-Apomorphine·HCl] | 338%
COC(=O)Nc1nc2cc(OS(=O)(=O)c3ccc(F)cc3)ccc2[nH]1 [luxabendazole] | 35.8%
CCOC(=O)O[C@]1(C(=O)COC(=O)CC)CC[C@H]2[C@@H]3CCC4=CC(=O)C=C[C@]4(C)[C@H]3[C@@H](O)C[C@@]21C [prednicarbate] | 194%
CCC(Cc1c(I)cc(I)c(N)c1I)C(=O)O (stereo unspecified) [iopanoic acid] | 331%
CCC[C@H](N[C@@H](C)C(=O)N1[C@H](C(=O)O)C[C@@H]2CCCC[C@@H]21)C(=O)OCC | 378%
CSC[C@H](NC(=O)[C@H](Cc1ccccc1)NC(=O)N1CCOCC1)C(=O)N[C@@H](CC1CCCCC1)[C@@H](O)C(=O)OC(C)C [terlakiren] | 179%
CC(=O)Oc1c(C)cc(OCC(O)CNC(C)C)c(C)c1C (stereo unspecified) [metipranolol] | 285%
Cc1cc(=O)[nH]c(=S)[nH]1 | 127%
CC(C)[C@H](N)C(=O)OCC(CO)OCn1cnc2c(=O)nc(N)[nH]c21 (stereo partly specified) [Valcyte] | 267%
COc1ccccc1Oc1c(NS(=O)(=O)c2ccc(C(C)(C)C)cc2)nc(-c2ncccn2)nc1OCCO [bosentan] | 228%
CCN1CC(CCN2CCOCC2)C(c2ccccc2)(c2ccccc2)C1=O (stereo unspecified) | 138%

SMILES | percent viability
O=NN(CCCl)C(=O)NCCCl [carmustine] | 309%
NS(=O)(=O)c1ccc(S(=O)(=O)Nc2cccc3c(Cl)c[nH]c23)cc1 [indisulam] | 251%
C=C1C[C@H]2[C@@H]3C=C(C)C4=CC(=O)CC[C@]4(C)[C@H]3CC[C@]2(C)[C@@]1(OC(C)=O)C(C)=O | 118%
CC(=O)OCC1=C(C(=O)O)N2C(=O)[C@@H](NC(=O)CC#N)[C@H]2SC1 [cefacetrile] | 377%
CCc1ccc(CCOc2ccc(CC3SC(=O)NC3=O)cc2)nc1 (stereo unspecified) [pioglitazone] | 237% and 326%
COC(=O)[C@H](Cc1ccccc1)NC(=O)[C@@H](N)CC(=O)O [aspartame] | 122%
CCCCCCOC(=O)NC(=N)c1ccc(NCc2nc3cc(C(=O)N(CCC(=O)OCC)c4ccccn4)ccc3n2C)cc1 [dabigatran etexilate] | 80.2%
CN(C)CCC(O)(c1ccccc1)c1ccccc1Cl (stereo unspecified) [clofedanol] | 245%
CCCc1c2c(c(O)c3c(=O)cc(C(=O)O)oc13)CCCC2 [proxicromil] | 174%
C[C@@H](n1cnc2cc(Cl)ccc2c1=O)[C@](O)(Cn1cncn1)c1ccc(F)cc1F [albaconazole] | 354%
Cc1cc(NS(=O)(=O)c2ccc(N)cc2)no1 [Sulfamethoxazole] | 26.7%
O=C(O)c1cccnc1Nc1cccc(C(F)(F)F)c1 [niflumic acid] | 354% and 247%
Cc1ccnc2c1NC(=O)c1cccnc1N2C1CC1 [nevirapine] | 362%
C[N+](C)(C)CCOP(=O)(O)OC[C@H](O)CO [choline alfoscerate] | 259%
CCC(C)n1ncn(-c2ccc(N3CCN(c4ccc(OCC5COC(Cn6cncn6)(c6ccc(Cl)cc6Cl)O5)cc4)CC3)cc2)c1=O (stereo unspecified) [Itraconazole] | 189%
CNC[C@H](O)c1ccc(O)c(O)c1 [epinephrine] | 181%
NC(CCC(=O)O)C(=O)O (stereo unspecified) | 239%
C[C@H](N[C@@H](CCc1ccccc1)C(=O)O)C(=O)N1C(=O)N(C)C[C@H]1C(=O)O [imidaprilat] | 95.1%
